Values quoted from earlier work, collected in patent US7833744B2, “Methods to evaluate cytochrome P450 2C19 isoenzyme activity using a breath test” (Cambridge Isotope Laboratories, Inc., priority 2006, dated 2010).
Where two headings read alike, the source gives them in different places. For at least one compound, name, drawing or mass did not settle the structure.

Test system: H. pylori infection
Conditions: omeprazole 20 mg/day plus amoxicillin

For `COc1ccc2[nH]c([S+]([O-])Cc3ncc(C)c(OC)c3C)nc2c1` (stereo not drawn) [omeprazole], the “eradication of H. pylori infection” value (PMs of CYP2C19) is listed as 100%, the “eradication of H. pylori infection” value (heterozygous EMs of CYP2C19) is listed as 60% and the “eradication of H. pylori infection” value (homozygous EMs of CYP2C19) is listed as 28.6%.
